Laboratory results published in paper PMC5717335.
These are yes or no findings as the source states them, for the method shown. In cells and extracts the contact can be indirect. These calls come from enrichment with a bait or labelling near it, and not all partners need be listed.

Biological target: Bod1-GFP (human), Q96IK1
Assay: affinity purification with mass spectrometry; GFP Binder (Chromotek) affinity purification of Bod1-GFP from lysates of HeLa cells arrested in mitosis with STLC, 90 min at 4°C; label-free quantitative MS against cells expressing GFP alone; n = 4 biological replicates
Conditions: remark: other sources report otherwise

binding: binds
B1: Ndc80 (Nuclear division cycle protein 80), O14777 1-642 (protein)
chain: MKRSSVSSGGAGRLSMQELRSQDVNKQGLYTPQTKEKPTFGKLSINKPTSERKVSLFGKRTSGHGSRNSQLGIFSSSEKIKDPRPLNDKAFIQQCIRQLCEFLTENGYAHNVSMKSLQAPSVKDFLKIFTFLYGFLCPSYELPDTKFEEEVPRIFKDLGYPFALSKSSMYTVGAPHTWPHIVAALVWLIDCIKIHTAMKESSPLFDDGQPWGEETEDGIMHNKLFLDYTIKCYESFMSGADSFDEMNAELQSKLKDLFNVDAFKLESLEAKNRALNEQIARLEQEREKEPNRLESLRKLKASLQGDVQKYQAYMSNLESHSAILDQKLNGLNEEIARVELECETIKQENTRLQNIIDNQKYSVADIERINHERNELQQTINKLTKDLEAEQQKLWNEELKYARGKEAIETQLAEYHKLARKLKLIPKGAENSKGYDFEIKFNPEAGANCLVKYRAQVYVPLKELLNETEEEINKALNKKMGLEDTLEQLNAMITESKRSVRTLKEEVQKLDDLYQQKIKEAEEEDEKCASELESLEKHKHLLESTVNQGLSEAMNELDAVQREYQLVVQTTTEERRKVGNNLQRLLEMVATHVGSVEKHLEEQIAKVDREYEECMSEDLSENIKEIRDKYEKKATLIKSSEE
